Data as given in US20250281517A1, “SENOLYSIS BY AMMONIA-LOWERING COMPONENT” (TAZ Inc., priority 2022, published 2025).

Tests used:
p16 = experiment: mRNA expression level of p16, a marker of senescent cells, in tissues of aged mice (real-time RT-PCR, GAPDH as internal standard); assay type: in vivo; conditions: aged male C57BL/6J mice (78 weeks old), test substance in drinking water ad libitum for one month, compared to aged mice having no additional administration, FIG. 2, lower panel
Procedure: (§1) As animals, experiments was performed using 7 young mice (male C57BL/6J mice, 7 weeks old) and 28 aged mice (male C57BL/6J-Aged mice, 78 weeks old).
(§2) Group 1 was constituted of young mice, and aged mice were divided into 4 groups each consisting of 7 mice (Groups 2 to 5) and the experimental conditions of individual groups are set as shown in the Table below.
(§3) As explained below, water comprising a test substance was given to the mice of Group 3 to Group 5.
(§4) The each types of drinking water which were prepared by adding a test substance as mentioned above was given to mice of each of the groups ad libitum, and the test substance was orally administered for one month. One month after the initiation of the experiment, all mice were sacrificed and dissected. […]
(§5) The RNA was purified with 75% ethanol, evaporated to dry under reduced pressure, and dissolved in 50 micro l of RNA-free water. Using NanoDrop ND-1000 (NanoDrop Technologies), absorbance was measured at 260 nm and 280 nm to determination of an absorbance ratio (A260/280 nm), RNA purity was confirmed by checking whether or not the absorbance ratio falls within the range of 1.9 to 2.1.
(§6) Quantitative real-time PCR was performed using total RNA extracted from the tissue for analysis of mRNA expressions of senescence markers p16 and p21 commonly known in the technical field. […]

p21 = experiment: mRNA expression level of p21, a marker of senescent cells, in tissues of aged mice (real-time RT-PCR, GAPDH as internal standard); assay type: in vivo; conditions: aged male C57BL/6J mice (78 weeks old), test substance in drinking water ad libitum for one month, compared to aged mice having no additional administration, FIG. 2, upper panel
Procedure: as §1, §2, §3, §4, §5, §6

## Cl.NCCC[C@H](N)C(=O)O [ornithine, L-ornithine hydrochloride]
p16
  mRNA expression level of marker p16 for senescent cells in the liver: tended to decrease
p21
  mRNA expression level of marker p21 for senescent cells in the liver: tended to decrease
